The results in this text go back to the supplement of paper PMC8007513.

Each structure is given as a SMILES string. The list shows a part of the results. Repeats are few or missing, and single values can be far off.

The assay concerns Saccharomyces cerevisiae BY4743. The experiment in a line: growth (OD600) relative to untreated control; higher = less growth inhibition. As to conditions: compound concentration: 133 uM; 20 h. The method, then: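 NMCCC compounds (133 uM, no IPBC) tested alone against Saccharomyces cerevisiae BY4743 in YPD, 96-well plates, starting OD600 ~0.1. Growth was read as OD600 at 20 h and expressed as % of the untreated control. Single pass.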
For the compound `CCCCn1nc(C)c(C(=O)NC(c2nc3ccccc3[nH]2)C(C)C)c1Cl` (stereo not drawn), the growth is 111%.
`COc1cccc(NC(=O)Cc2csc(C(C)C)n2)c1` gave a growth of 96.5%.
The result for `Cc1nc(C2(NC(=O)C(C)Oc3ccc(C#N)cc3)CCCCC2)no1` (stereo not drawn) reads 107%; that for `COC(=O)c1cc(OC)c(OC)cc1NS(=O)(=O)c1ccccc1C(F)(F)F`, 105%.
The result for `Cc1noc(C)c1CSCC(=O)OCC(=O)N1CCN(c2ccccc2)CC1` reads 96.6%; that for `CCOC(=O)c1cc(Oc2ccc(C#N)cn2)cc(C(=O)OCC)c1`, 83.7%; that for `COc1ccc(Cl)cc1-c1n[nH]c(SCC(=O)N(CCC#N)c2ccccc2)n1`, 102%.
Take `COCc1c(C(=O)Nc2nc[nH]n2)sc2cccc(F)c12`: the growth came out at 89.4%.
Take `CC(Sc1ccc2c(c1)OCCCO2)C(=O)Nc1sccc1C(N)=O` (stereo not drawn): the growth came to 116%.
Turning to `CCOC(=O)C1(C)\C=C(\NC2=CC=CC(=C2)C)C(=O)N1C3=CC=CC=C3` (stereo not drawn), the growth was determined as 91.6%.
The result for `CCc1ccc(CN(CC(=O)N2CCNCC2)S(=O)(=O)c2cc(C)c(C)cc2C)cc1` reads 113%.
The compound `Cc1ccc(CN2C(=O)c3ccccc3C2O)o1` (stereo not drawn) returned a growth of 99%.
To `CSc1ncc(Cl)c(C(=O)N2CCN(Cc3csc(C)n3)CC2)n1` belongs 89.5%; to `CCOC(=O)Cc1csc(SCc2cc(C)no2)n1`, 81.8%; to `COc1ccccc1-c1noc(CSc2n[nH]c(C(C)C)n2)n1`, 100%.
Turning to `CCC1CN(CN2C(=O)C(=O)c3c(Br)cccc32)CCO1` (stereo not drawn), the growth is 102%.
To `CCOC(=O)c1c(C)oc2ncnc(NCc3ccccc3Cl)c12` belongs 83.9%.
The result for `O=C(CNc1nccs1)c1c[nH]c2ccccc12` reads 100%.
Compound `COc1ccc(-c2nnc(SCC(=O)OC(C)C)n2-c2ccccc2)cc1` had a growth of 99%.
The result for `CN(C1CCCCC1)C(=O)\C2=C\C(=N/[S](=O)(=O)N2C)C3=CC=C(F)C=C3` reads 99.2%; that for `CCCN(Cc1cccs1)C(=O)Nc1cc(Cl)ccc1OC`, 92.8%.
As to `CC(Sc1n[nH]c(-c2ccc(Cl)cc2)n1)C(=O)NC1CCCCC1` (stereo not drawn), the growth worked out at 94.6%.
With `O=C(Cc1cccc(F)c1)NCC(=O)Nn1cnc2ccccc21`, the growth stood at 102%.
As for `CCOC(=O)N1CCN(C(=O)Cn2nc(C)c3ccccc32)CC1`, the growth was 103%.
`CN1\C(=C/C(=N\[S]1(=O)=O)C2=CC=C(F)C=C2)C(=O)NC3=CC=C(C=C3)C(C)=O` returned a growth of 90.2%.
`COC(=O)COc1ccc(NC(=O)c2ccc(O)nn2)cc1`: the growth was 99.3%.
The result for `CCOC(=O)CNC(=O)c1cc(Br)ccc1OCC(C)C` reads 99.4%.
With `O=C(Nc1cccc(N2CCCS2(=O)=O)c1)C(=O)N[C@H](CO)Cc1ccccc1`, the growth amounted to 92%.
To `CSc1nc(C)c(CC(=O)N2CCN(S(=O)(=O)c3ccccc3C(F)(F)F)CC2)s1` belongs 107%; to `CCC(C)C1=CC=C(NC(=O)\C2=C\C3=CC=CC=C3C(=O)O2)C=C1` (stereo not drawn), 103%.
Regarding `CCOC(=O)N1CCN(C(=O)c2cc(OC)c(OC)cc2-n2cccc2)CC1`, the growth came to 103%.
To `CCC(Sc1nc2ccc[nH]c-2n1)C(=O)NCC1CCCO1` (stereo not drawn) belongs 99.2%; to `Cl\C1=C(\CCCC1)C(=O)NC2=CC=C(C=C2)N3CCOCC3`, 105%.
The result for `Cc1ccc(C(=O)c2sc(Nc3ccccc3)nc2N)c(C)c1` reads 108%; that for `CC(=O)N1c2ccc(S(=O)(=O)NC(C(=O)Nc3ccccn3)C(C)C)cc2CC1C` (stereo not drawn), 107%.
In turn, `Cl\C1=C(\CCCC1)C(=O)NC2=CC=C3OCOC3=C2` yielded a growth of 97.4%.
The result for `Cc1ccc(CNn2nnnc2N)s1` reads 92.6%.
In turn, `CCOc1ccc(CC(=O)NCc2cn3c(C)csc3n2)cc1` registered a growth of 107%.
